This is an account of results in publication PMC12152122.

Protein sequences, listed by entry. Tags and fused reporters are not part of them.
UniProt Q9Y266: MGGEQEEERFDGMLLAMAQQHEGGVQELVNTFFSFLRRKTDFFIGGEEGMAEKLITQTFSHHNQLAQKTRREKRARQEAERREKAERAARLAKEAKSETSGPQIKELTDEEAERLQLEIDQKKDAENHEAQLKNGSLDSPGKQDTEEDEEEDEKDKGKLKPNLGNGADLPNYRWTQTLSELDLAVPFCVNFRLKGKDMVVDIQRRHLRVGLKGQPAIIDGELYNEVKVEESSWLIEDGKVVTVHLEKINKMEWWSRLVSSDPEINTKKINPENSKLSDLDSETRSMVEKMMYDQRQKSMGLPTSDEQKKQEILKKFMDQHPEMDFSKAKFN

No constants are given. Whether binding was seen depends on the method and setting. Binding seen in cells or lysates may run through a third protein. Some entries that bind do so weakly or less than the wild type. For some of these results: Sequences can lack the tags named with a protein.

Assay [1] deals with T1, Flag-tagged full-length RNF41 (transfected in HEK293T cells) (UniProt Q9H4P4).
T1 sequence: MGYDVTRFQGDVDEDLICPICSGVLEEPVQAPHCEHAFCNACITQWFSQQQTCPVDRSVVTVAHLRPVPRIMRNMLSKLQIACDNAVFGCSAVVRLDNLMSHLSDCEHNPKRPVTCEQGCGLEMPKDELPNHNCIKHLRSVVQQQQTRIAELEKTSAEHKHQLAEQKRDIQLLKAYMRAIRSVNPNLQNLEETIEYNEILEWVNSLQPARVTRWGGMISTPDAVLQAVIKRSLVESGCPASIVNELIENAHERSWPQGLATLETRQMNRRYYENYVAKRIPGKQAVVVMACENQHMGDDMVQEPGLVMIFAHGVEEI
The assay is described as follows: co-IP; HEK293T cells co-transfected with Myc-NUDC and Flag-tagged full-length RNF41 or its deletion mutants; immunoprecipitation with Flag beads, immunoblot with antibodies against Myc and Flag.

Assay [2] addresses T2, FLAG-tagged RNF41 (transfected in T24 cells) (UniProt Q9H4P4).
T2 sequence: T1 sequence
Briefly: co-IP; T24 cells transfected with FLAG-RNF41 and MYC-NUDC plasmids for 36 h; tagged protein with the endogenous counterpart.

The target of assay [3] is MYC-tagged NUDC (transfected in T24 cells) (UniProt Q9Y266). Described as above.
The target of assay [4] is Nuclear distribution protein C (NUDC) (endogenous, T24 cells) (human (endogenous in T24)) (UniProt Q9Y266). The assay is described as follows: co-IP; endogenous proteins in T24 cells.

“Myc-NUDC (transfected in HEK293T cells) (from UniProt Q9Y266 1-331)”: in assay [1], the binding result is on record as “binds”.

As to “Nuclear distribution protein C (NUDC) (endogenous, T24 cells) (from UniProt Q9Y266 1-331)”, the binding entry in assay [2] is listed as “binds”.

B1: RNF41 (endogenous, T24 cells) (protein, UniProt Q9H4P4 1-317)
chain: T1 sequence
B1: the binding entry in assay [3] and in assay [4] was “binds” throughout.
